PubChem BioAssay AID248 (DTP/NCI, 2004)
The list is a part of this screen's results and no random one: it gathers tests that were run many times, whatever their T/C, doses with no T/C, and many T/C values between a quarter and a half above the control. Further doses and runs are listed elsewhere. T/C gives the treated animals as a percentage of the vehicle group. Some doses have a count of surviving animals in place of a T/C: the source files T/C as zero there, which appears to mark a toxic dose or a test without result, not a measured value. Some doses without a T/C left all or most animals alive at the check, yet need not have been tolerated: the source hardly ever lists a survival T/C far under the control, and the zero likely stands for such cases as well. Counts of survivors are from the toxicity check (mostly the fifth day) where no day follows; animals may have died later. Schedules are NCI's codes, taken here to give the interval after Q, in days (D) or hours (H), and the number of doses after X. Some schedule codes hold Z or #, which are not explained here. Where survival is the endpoint, the PubChem record calls one and a half times the control and up active, and a quarter to a half above the control has no call in these data; cut-offs in other NCI protocols can differ. Some T/C values are followed by the survivors on the day toxicity was checked, most often the fifth; without a count, all were alive then.

System: L1210 leukemia ip in BDF1 mice, survival T/C
Test: NCI In Vivo Anticancer Drug Screen. Data for tumor model L1210 Leukemia (intraperitoneal) in B6D2F1 (BDF1) mice
Settings: T/C endpoint: mean survival time, higher T/C = longer survival
[1] = dose: 100.0 mg/kg/injection, schedule: Q01DX009 (ip), vehicle: saline with Tween-80
[2] = dose: 200.0 mg/kg/injection, schedule: Q01DX009 (ip), vehicle: saline with Tween-80
[3] = dose: 400.0 mg/kg/injection, schedule: Q01DX009 (ip), vehicle: saline with Tween-80
[4] = dose: 300.0 mg/kg/injection, schedule: Q01DX001 (ip), vehicle: saline
[5] = dose: 10.0 mg/kg/injection, schedule: Q01DX001 (ip), vehicle: saline
[6] = dose: 20.0 mg/kg/injection, schedule: Q01DX001 (ip), vehicle: saline
[7] = dose: 40.0 mg/kg/injection, schedule: Q01DX001 (ip), vehicle: saline

`CCOC(=O)CNC(=O)Oc1c(Cl)cccc1Cl` was tested, and the survivor count (dose: 100.0 mg/kg/injection, schedule: Q01DX009 (ip), vehicle: Klucel (hydroxypropylcellulose) (HPC)) was 6 of 6, the survivor count (dose: 200.0 mg/kg/injection, schedule: Q01DX009 (ip), vehicle: Klucel (hydroxypropylcellulose) (HPC)) was 5 of 6 and the survivor count (dose: 400.0 mg/kg/injection, schedule: Q01DX009 (ip), vehicle: Klucel (hydroxypropylcellulose) (HPC)) was 0 of 6.
`CC(=O)Oc1c(C)c(C)c(O)c(C)c1C[P+](c1ccccc1)(c1ccccc1)c1ccccc1` was tested, and the survivor count [1] was 0 of 6, the survivor count [2] was 0 of 6 and the survivor count [3] was 0 of 6.
With `CNc1nc(Cl)ncc1C` the survivor count (dose: 1.0 mg/kg/injection, schedule: Q01DX Z (ip), vehicle: methylcellulose (MC)) was 1 of 6, the survivor count (dose: 3.0 mg/kg/injection, schedule: Q01DX Z (ip), vehicle: methylcellulose (MC)) was 0 of 6 and the survivor count (dose: 6.0 mg/kg/injection, schedule: Q01DX Z (ip), vehicle: methylcellulose (MC)) was 5 of 6. For the same molecule, the survivor count (dose: 12.0 mg/kg/injection, schedule: Q01DX Z (ip), vehicle: methylcellulose (MC)) was 1 of 6, the survivor count (dose: 25.0 mg/kg/injection, schedule: Q01DX Z (ip), vehicle: methylcellulose (MC)) was 0 of 6 and the survivor count (dose: 50.0 mg/kg/injection, schedule: Q01DX Z (ip), vehicle: methylcellulose (MC)) was 0 of 6. For the same molecule, the survivor count (dose: 100.0 mg/kg/injection, schedule: Q01DX Z (ip), vehicle: methylcellulose (MC)) was 0 of 6 and the survivor count (dose: 200.0 mg/kg/injection, schedule: Q01DX Z (ip), vehicle: methylcellulose (MC)) was 0 of 6.
In the case of `ClC1(Cl)C2CC(C3C4C=CC(C4)C32)C1(Cl)Cl` (configuration not stated), the survivor count (dose: 100.0 mg/kg/injection, schedule: Q01DX001 (ip), vehicle: carboxymethylcellulose (CMC)) is reported as 4 of 4 and the survivor count (dose: 200.0 mg/kg/injection, schedule: Q01DX001 (ip), vehicle: carboxymethylcellulose (CMC)) is reported as 4 of 4.
For `CC(C)=CCC(CC=C(C)C)c1ccncc1` (tested in a mixture with another compound), the survivor count (dose: 400.0 mg/kg/injection, schedule: Q01DX001 (ip), vehicle: saline) was 3 of 6.
For `CCOC(CN1CCCCC1)c1ccccc1` (configuration not stated), the survivor count [1] was 1 of 6, the survivor count [2] was 0 of 6 and the survivor count [3] was 0 of 6.
With `Oc1ccccc1OB(Oc1ccccc1O)N(CCCl)CCCl` the survivor count (dose: 200.0 mg/kg/injection, schedule: Q01DX001 (ip), vehicle: other) was 3 of 6 and the survivor count (dose: 400.0 mg/kg/injection, schedule: Q01DX001 (ip), vehicle: other) was 0 of 6.
With `CC(C)(CN=Cc1cccc(O)c1)N=Cc1cccc(O)c1` the survivor count (dose: 300.0 mg/kg/injection, schedule: Q01DX009 (ip), vehicle: DMSO) was 2 of 6.
With `CC1(Br)C(=O)C(O)=C(Br)C1=O` (configuration not stated) the survivor count [4] was 1 of 6.
With `O=NN(CCCl)C(=O)Nc1ncc([N+](=O)[O-])s1` the T/C (dose: 250.0 mg/kg/injection, schedule: Q01DX001 (ip), vehicle: other) was 129 % of control [9 of 10 alive], the survivor count (dose: 375.0 mg/kg/injection, schedule: Q01DX001 (ip), vehicle: other) was 6 of 10 and the survivor count (dose: 500.0 mg/kg/injection, schedule: Q01DX001 (ip), vehicle: other) was 2 of 10.
With `C=C(C)c1ccc(C)c(C)c1` the survivor count (dose: 100.0 mg/kg/injection, schedule: Q04DX003 (ip), vehicle: saline with Tween-80) was 6 of 6.
In the case of `CC(C)CCC[C@@H](C)[C@H]1CC[C@H]2[C@@H]3CC[C@H]4C[C@H]5N[C@H]5C[C@]4(C)[C@H]3CC[C@]12C`, the survivor count (dose: 200.0 mg/kg/injection, schedule: Q01DX001 (ip), vehicle: Klucel (hydroxypropylcellulose) (HPC)) is reported as 6 of 6.
For `CC1CC(C)(C)NC(C2CCC=CO2)N1` (configuration not stated), the survivor count (dose: 66.0 mg/kg/injection, schedule: Q01DX Z (ip), vehicle: saline) was 6 of 6.
For `COC(C(OC)N1CCOCC1)N1CCOCC1` (configuration not stated), the T/C (dose: 200.0 mg/kg/injection, schedule: Q01DX009 (ip), vehicle: saline) was 128 % of control [4 of 6 alive].
`C=C(C)C(=O)Nc1ccccc1` was tested, and the survivor count (dose: 400.0 mg/kg/injection, schedule: Q04DX003 (ip), vehicle: Klucel (hydroxypropylcellulose) (HPC)) was 3 of 3.
With `Cc1ccc(S(=O)(=O)OCCCl)cc1` the survivor count (dose: 400.0 mg/kg/injection, schedule: Q04DX002 (ip), vehicle: saline with Tween-80) was 1 of 3.
In the case of `CN(C)C=Nc1ncnc2[nH]ncc12`, the T/C (dose: 200.0 mg/kg/injection, schedule: Q04DX003 (ip), vehicle: saline with Tween-80) is reported as 125 % of control and the survivor count (dose: 400.0 mg/kg/injection, schedule: Q04DX003 (ip), vehicle: saline with Tween-80) is reported as 1 of 6.
`Nc1ncnc2c1ncn2C1OC(COS(N)(=O)=O)C(O)C1O` (configuration not stated) was tested, and the survivor count (dose: 1.0 mg/kg/injection, schedule: Q01DX001 (ip), vehicle: saline) was 0 of 6, the survivor count (dose: 2.0 mg/kg/injection, schedule: Q01DX001 (ip), vehicle: saline) was 0 of 6 and the survivor count (dose: 4.0 mg/kg/injection, schedule: Q01DX001 (ip), vehicle: saline) was 0 of 6. The survivor count (dose: 5.0 mg/kg/injection, schedule: Q01DX001 (ip), vehicle: saline) was 0 of 6, the survivor count (dose: 8.0 mg/kg/injection, schedule: Q01DX001 (ip), vehicle: saline) was 0 of 6 and the survivor count [5] was 0 of 6. The survivor count [6] was 0 of 6, the survivor count [7] was 0 of 6 and the survivor count (dose: 75.0 mg/kg/injection, schedule: Q01DX001 (ip), vehicle: saline) was 0 of 6. For the same molecule, the survivor count (dose: 80.0 mg/kg/injection, schedule: Q01DX001 (ip), vehicle: saline) was 0 of 6, the survivor count (dose: 150.0 mg/kg/injection, schedule: Q01DX001 (ip), vehicle: saline) was 0 of 6 and the survivor count [4] was 0 of 6.
With `Nc1ccc(S(=O)(=O)CI)cc1` the survivor count (dose: 400.0 mg/kg/injection, schedule: Q01DX001 (ip), vehicle: carboxymethylcellulose (CMC)) was 0 of 4.
With `CC1OC(OC2CC(O)C3(CO)C4C(O)CC5(C)C(C6=CC(=O)OC6)CCC5(O)C4CCC3(O)C2)C(O)C(O)C1O` (configuration not stated) the survivor count [5] was 2 of 6, the survivor count [6] was 0 of 6 and the survivor count (dose: 25.0 mg/kg/injection, schedule: Q01DX001 (ip), vehicle: saline) was 2 of 6. For the same molecule, the survivor count [7] was 0 of 6.
